Measurements as given in patent publication US4385060A, “Penicillins” (Beecham Group Limited, priority 1979, dated 1983).
At least one read-out could not be matched to a standard name with certainty.

Assay: Intact ester in blood and urine after oral administration to human volunteers
Format: in vivo

Cc1ccccc1OC(=O)C(C(=O)N[C@@H]1C(=O)N2[C@@H]1SC(C)(C)[C@@H]2C(=O)O)c1ccsc1 (stereo partly drawn) [o-tolyl, 6β-[2-(2'-methylphenoxycarbonyl)-2-thien-3'-ylacetamido]penicillanic acid]
ester present in the blood stream: < 0.2 μg/m
